In test [1] the target is HSC70 (human) (UniProt P11142). As to the kind of experiment: mNeonGreen-trap co-immunoprecipitation from U937 lysate, with or without cGAMP, immunoblot (FIG. 11F). Background: A western blot detects proteins with antibodies after separation by electrophoresis.
In test [2] the target is HA-tagged wild-type (WT) STING (human) (UniProt Q86WV6). As to the kind of experiment: co-immunoprecipitation of STING-HA with mCh-DNAJC13 (FIG. 21B).
For test [3] the target is unchanged. As to the kind of experiment: co-immunoprecipitation of STING-HA with mCh-DNAJC13, digitonin only or digitonin and cGAMP for 4 hours (FIG. 21B).
The target of test [4] is HA-tagged STING R284S (constitutive active SAVI mutant) (human) (UniProt Q86WV6). Nature of the test: anti-HA co-immunoprecipitation from 293T lysate, immunoblot (FIG. 3E).
Test [5] has as its target HA-tagged STING V155M (constitutive active SAVI mutant) (human) (UniProt Q86WV6). The description is as above.
Test [6] concerns the target HA-tagged STING R284S (constitutive active SAVI mutant) (human) (UniProt Q86WV6). As to the kind of experiment: anti-HA co-immunoprecipitation from 293T lysate, immunoblot (FIG. 3F).
In test [7] the target is HA-tagged STING V155M (constitutive active SAVI mutant) (human) (UniProt Q86WV6). Described as above.

Chains of the proteins cited; added tags and fusions are not shown. Lines headed by an entry give the natural chain unless they say otherwise; changes in a name come on top. Residues count along the entry.
UniProt P11142, residues 2-646: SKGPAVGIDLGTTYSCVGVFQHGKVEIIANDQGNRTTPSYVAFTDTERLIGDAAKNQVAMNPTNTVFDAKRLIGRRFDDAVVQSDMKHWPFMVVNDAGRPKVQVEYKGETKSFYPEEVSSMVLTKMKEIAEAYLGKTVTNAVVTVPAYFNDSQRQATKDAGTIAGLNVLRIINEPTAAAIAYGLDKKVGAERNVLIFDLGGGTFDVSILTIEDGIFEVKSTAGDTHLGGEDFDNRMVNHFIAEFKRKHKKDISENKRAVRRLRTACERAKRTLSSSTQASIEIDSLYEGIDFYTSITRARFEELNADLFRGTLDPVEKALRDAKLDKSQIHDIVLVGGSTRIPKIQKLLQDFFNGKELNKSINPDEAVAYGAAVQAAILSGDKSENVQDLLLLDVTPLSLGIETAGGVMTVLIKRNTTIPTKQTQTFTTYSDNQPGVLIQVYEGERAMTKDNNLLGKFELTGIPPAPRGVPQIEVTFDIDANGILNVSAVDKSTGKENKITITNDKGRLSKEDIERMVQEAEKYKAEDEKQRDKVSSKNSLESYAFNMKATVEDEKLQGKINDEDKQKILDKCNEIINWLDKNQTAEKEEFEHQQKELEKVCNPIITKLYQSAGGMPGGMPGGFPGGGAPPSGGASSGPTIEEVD
UniProt Q86WV6: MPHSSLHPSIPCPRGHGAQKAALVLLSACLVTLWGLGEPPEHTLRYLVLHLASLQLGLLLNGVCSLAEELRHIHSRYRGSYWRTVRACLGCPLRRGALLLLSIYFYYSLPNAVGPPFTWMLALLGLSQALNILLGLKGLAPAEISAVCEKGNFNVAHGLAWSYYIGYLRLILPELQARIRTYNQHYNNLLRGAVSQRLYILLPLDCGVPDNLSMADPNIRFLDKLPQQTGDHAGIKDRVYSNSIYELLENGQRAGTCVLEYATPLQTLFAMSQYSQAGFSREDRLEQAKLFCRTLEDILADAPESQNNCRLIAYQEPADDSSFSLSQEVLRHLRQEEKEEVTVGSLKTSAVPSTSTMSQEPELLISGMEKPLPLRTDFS
UniProt O75165: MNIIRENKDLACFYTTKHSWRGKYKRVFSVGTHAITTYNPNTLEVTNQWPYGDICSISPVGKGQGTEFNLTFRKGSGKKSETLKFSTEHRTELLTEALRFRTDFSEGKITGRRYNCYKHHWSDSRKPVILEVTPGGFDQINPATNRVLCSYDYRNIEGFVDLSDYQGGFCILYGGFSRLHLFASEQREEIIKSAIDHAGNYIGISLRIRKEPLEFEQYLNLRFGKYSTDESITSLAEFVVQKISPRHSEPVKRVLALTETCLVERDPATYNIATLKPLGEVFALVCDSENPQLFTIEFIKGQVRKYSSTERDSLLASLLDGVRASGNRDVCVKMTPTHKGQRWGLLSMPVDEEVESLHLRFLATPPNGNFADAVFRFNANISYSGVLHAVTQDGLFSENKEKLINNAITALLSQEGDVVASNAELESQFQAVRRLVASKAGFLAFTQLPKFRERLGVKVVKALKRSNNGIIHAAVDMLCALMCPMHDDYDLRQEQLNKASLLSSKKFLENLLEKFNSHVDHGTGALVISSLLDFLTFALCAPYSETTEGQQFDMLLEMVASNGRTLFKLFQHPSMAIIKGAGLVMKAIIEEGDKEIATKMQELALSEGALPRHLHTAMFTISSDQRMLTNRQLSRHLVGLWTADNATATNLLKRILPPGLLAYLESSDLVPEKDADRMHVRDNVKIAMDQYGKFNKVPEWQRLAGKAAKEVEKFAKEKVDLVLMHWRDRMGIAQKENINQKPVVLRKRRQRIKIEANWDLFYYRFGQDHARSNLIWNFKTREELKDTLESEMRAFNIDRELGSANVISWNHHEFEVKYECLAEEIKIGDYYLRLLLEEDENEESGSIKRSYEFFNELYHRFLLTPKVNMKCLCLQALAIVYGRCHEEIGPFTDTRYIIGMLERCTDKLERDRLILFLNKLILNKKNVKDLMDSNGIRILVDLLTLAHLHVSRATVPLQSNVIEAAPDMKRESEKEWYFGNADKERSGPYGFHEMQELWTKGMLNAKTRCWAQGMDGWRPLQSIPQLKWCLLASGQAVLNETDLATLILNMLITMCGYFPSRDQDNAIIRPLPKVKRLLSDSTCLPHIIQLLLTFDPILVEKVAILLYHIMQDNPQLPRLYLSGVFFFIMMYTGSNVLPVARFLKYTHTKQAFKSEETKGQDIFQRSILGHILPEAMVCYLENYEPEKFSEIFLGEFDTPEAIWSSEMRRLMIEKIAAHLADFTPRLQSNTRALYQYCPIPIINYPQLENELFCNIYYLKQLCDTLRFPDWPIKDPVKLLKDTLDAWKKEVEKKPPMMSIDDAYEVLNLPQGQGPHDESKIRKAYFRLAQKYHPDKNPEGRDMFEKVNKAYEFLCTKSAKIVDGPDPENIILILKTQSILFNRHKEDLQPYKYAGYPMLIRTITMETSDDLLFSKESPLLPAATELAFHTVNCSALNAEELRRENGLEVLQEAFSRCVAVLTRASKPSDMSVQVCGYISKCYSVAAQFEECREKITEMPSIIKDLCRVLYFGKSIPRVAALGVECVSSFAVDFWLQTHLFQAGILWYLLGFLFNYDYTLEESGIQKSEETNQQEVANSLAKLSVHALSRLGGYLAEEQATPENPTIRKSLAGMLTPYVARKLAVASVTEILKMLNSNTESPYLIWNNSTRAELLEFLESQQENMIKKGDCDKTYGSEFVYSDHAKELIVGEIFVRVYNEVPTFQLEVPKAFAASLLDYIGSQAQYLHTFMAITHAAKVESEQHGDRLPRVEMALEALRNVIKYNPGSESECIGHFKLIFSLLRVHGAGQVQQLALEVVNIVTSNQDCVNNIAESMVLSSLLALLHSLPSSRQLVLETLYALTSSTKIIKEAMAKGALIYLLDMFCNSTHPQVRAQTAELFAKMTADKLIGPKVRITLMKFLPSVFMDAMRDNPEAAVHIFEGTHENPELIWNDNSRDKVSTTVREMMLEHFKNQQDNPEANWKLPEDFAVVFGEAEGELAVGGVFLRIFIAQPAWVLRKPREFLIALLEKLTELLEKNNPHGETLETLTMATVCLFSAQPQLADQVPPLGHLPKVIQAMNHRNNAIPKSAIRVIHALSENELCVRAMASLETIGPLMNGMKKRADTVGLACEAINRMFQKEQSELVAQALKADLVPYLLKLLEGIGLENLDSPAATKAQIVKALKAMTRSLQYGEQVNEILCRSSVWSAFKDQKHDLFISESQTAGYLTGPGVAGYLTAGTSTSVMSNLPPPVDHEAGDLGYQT
UniProt O14964: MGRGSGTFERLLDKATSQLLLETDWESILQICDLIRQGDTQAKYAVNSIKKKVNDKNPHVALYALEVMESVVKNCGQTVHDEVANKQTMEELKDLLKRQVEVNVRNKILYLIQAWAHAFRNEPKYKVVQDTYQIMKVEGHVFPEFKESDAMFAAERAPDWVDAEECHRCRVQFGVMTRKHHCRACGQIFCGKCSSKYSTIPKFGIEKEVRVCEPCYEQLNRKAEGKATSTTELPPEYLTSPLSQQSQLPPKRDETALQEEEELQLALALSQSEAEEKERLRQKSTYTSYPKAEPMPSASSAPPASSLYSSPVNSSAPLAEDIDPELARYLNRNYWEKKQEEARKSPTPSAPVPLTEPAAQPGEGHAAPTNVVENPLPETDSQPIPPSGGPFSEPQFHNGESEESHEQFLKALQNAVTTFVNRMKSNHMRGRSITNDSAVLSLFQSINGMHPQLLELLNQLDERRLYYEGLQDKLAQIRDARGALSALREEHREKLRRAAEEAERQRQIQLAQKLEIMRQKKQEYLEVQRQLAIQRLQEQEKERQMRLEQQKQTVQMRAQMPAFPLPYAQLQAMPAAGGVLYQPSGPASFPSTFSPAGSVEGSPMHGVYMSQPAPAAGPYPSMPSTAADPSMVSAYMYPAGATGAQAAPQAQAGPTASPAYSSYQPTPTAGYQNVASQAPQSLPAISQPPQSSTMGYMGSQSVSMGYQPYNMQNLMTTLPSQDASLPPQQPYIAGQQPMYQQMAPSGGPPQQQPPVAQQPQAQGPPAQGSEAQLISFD
UniProt Q8NEZ2: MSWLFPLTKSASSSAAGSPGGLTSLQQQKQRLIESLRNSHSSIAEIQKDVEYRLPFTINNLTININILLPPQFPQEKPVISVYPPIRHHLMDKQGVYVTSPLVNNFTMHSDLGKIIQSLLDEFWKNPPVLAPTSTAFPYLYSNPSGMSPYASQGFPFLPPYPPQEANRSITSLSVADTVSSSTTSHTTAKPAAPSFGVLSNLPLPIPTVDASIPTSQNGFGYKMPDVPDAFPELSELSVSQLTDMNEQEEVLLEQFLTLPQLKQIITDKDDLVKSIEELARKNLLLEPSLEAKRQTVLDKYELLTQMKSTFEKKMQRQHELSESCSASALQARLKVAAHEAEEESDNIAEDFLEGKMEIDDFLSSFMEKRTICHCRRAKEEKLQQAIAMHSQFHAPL

No constants are given. Whether binding was seen depends on the method and setting. Binding seen in cells or lysates may run through a third protein. Some binding calls cover weakened binding; strength is not graded here.

With “STING-mNeonGreen (from UniProt Q86WV6 1-379)”, in test [1], the binding result is reported as “binds”.

On to “mCherry fused with DNAJC13 (mCh-DNAJC13) (from UniProt O75165 1-2243)”, for which the binding entry in test [2] and in test [3] was “binds” throughout.

For “mScarlet-HGS (hepatocyte growth factor-regulated tyrosine kinase substrate fused to mScarlet) (from UniProt O14964 1-777)”, the binding entry in test [4] and in test [5] was “binds” in each case.

For “mScarlet-VPS37A (vacuolar protein sorting-associated protein 37A fused to mScarlet) (from UniProt Q8NEZ2 1-397)”, the binding entry in test [6] and in test [7] was “binds” in each case.

For the origin of these results see patent US20240271138A1, “METHODS AND COMPOSITIONS FOR MODULATING STING SIGNALING AND INNATE IMMUNE RESPONSES” (The Broad Institute, Inc., priority 2021, published 2024).
